The record followed here is the supplement of paper PMC9135407.

This test concerns primary human hepatic stellate cells (donor 1). Nature of the test: percent Bodipy-positive cells; higher = more lipid droplet accumulation. The following applies: 48 h.
The mark [1] stands for this setting: library stock concentration: 3.33 mM.
The mark [2] stands for this setting: library stock concentration: 10 mM.
Setting [3] is: library stock concentration: 1 mM.

Where “and” joins values, the source holds several entries; their conditions need not be identical. Equal values may be shown once. Where a name gives a salt, the structure may show the parent alone. ± gives the standard deviation of the averaged measurements. This is one part of the list. Part of the spread comes from offsets between plates or batches.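 Assay uses culture-activated primary human stellate myofibroblasts; lipid droplet recovery indicates inactivation. Measured: proportion of Hoechst-counted cells over a plate-specific Bodipy cutoff, duplicate wells, DMSO and nortriptyline as per-plate negative and positive controls. A hit scores, control-normalized, above the plate's top-tenth-percentile nortriptyline wells or ranks among its three best wells. Final well concentrations not reported.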

`COc1cc([C@@H]2c3cc4c(cc3[C@@H](O[C@@H]3O[C@@H]5CO[C@@H](c6cccs6)O[C@H]5[C@H](O)[C@H]3O)[C@H]3COC(=O)[C@H]23)OCO4)cc(OC)c1O` [Teniposide]: the “percent Bodipy-positive cells” value is, setting by setting: (library stock concentration: 3 mM) 23.8 ± 8%; under setting [1], 35.7 ± 1.8%; under setting [2], 75.3% and 65.1%.

Regarding `O=C(O)c1c(Sc2ccccc2)c2cc(Cl)ccc2n1Cc1ccc(Cl)cc1`, the “percent Bodipy-positive cells” value under setting [2] stood at 6.73 ± 1.1%.

For `CCOc1ccccc1OC(c1ccccc1)C1CNCCO1` (configuration not stated) [Reboxetine mesylate], under setting [1], the “percent Bodipy-positive cells” value came to 53 ± 11%.

In the case of `O=c1[nH]cnc2c1ncn2[C@@H]1O[C@H](CO)[C@@H](O)[C@H]1O`, the “percent Bodipy-positive cells” value under setting [2] was determined as 29.7 ± 0.7%.

As for `O=c1[nH]cnc2c1ncn2[C@@H]1O[C@H](CO)[C@@H](O)[C@H]1O` [Inosine], the “percent Bodipy-positive cells” value under setting [1] came to 9.43 ± 3.2% and the “percent Bodipy-positive cells” value under setting [2] was 17.8 ± 1%.

On to `CCCCOc1cc(CC2CNC(=O)N2)ccc1OC` (configuration not stated), for which, where the note is “library stock concentration: 18 mM”, the “percent Bodipy-positive cells” value stood at 16.3 ± 2.1%.

With `OC[C@H]1O[C@@H](n2cnc3c(N[C@H]4CCC[C@@H]4O)ncnc32)[C@@H](O)C1O` (stereo partly drawn) [Adenosine, N-(2-hydroxycyclopentyl)-, (1S-trans)- [CAS]], the “percent Bodipy-positive cells” value under setting [2] was determined as 8.32 ± 4.8%.

Turning to `O=C1NC(=O)/C(=C/c2ccc3c(c2)OC(F)(F)O3)S1`, the “percent Bodipy-positive cells” value under setting [3] amounted to 10.25 ± 0.067% and the “percent Bodipy-positive cells” value under setting [1] came out at 7.28 ± 2%.

Turning to `Cc1n[nH]c(=O)[nH]c1=O` [Azathymine, 6], the “percent Bodipy-positive cells” value was determined as 29.2 ± 4.6%.

Consider `CC(C)Cn1c(=O)n(C)c(=O)c2[nH]cnc21` [3-Isobutyl-1-methylxanthine], for which the “percent Bodipy-positive cells” value under setting [2] is 38.6 ± 9.7%.

`CCOc1ccc2nc3cc(N)ccc3c(N)c2c1`: the “percent Bodipy-positive cells” value under setting [2] was found to be 98.6 ± 1.1%.

As for `CCOc1ccc2nc3cc(N)ccc3c(N)c2c1` [Ethacridine lactate monohydrate], the “percent Bodipy-positive cells” value reads like this: under setting [1], 28.4 ± 5%; under setting [2], 94 ± 3.8%.

As to `CCN(CC)CCNc1ccc(CO)c2sc3ccccc3c(=O)c12` [Hycanthone], the “percent Bodipy-positive cells” value came out at 69.4 ± 16%. Moreover, the “percent Bodipy-positive cells” value under setting [2] was found to be 73 ± 4.7%.

Turning to `CC#CCC(C)C(=O)/C=C/[C@@H]1[C@H]2C/C(=C/CCCC(=O)O)C[C@H]2C[C@H]1O` (some centres not stated) [15-keto Iloprost], the “percent Bodipy-positive cells” value under setting [3] is 9.77 ± 0.99%.

With `CN(Cc1cnc2nc(N)nc(N)c2n1)c1ccc(C(=O)N[C@@H](CCC(=O)O)C(=O)O)cc1` (racemic) [Amethopterin (R,S)], the “percent Bodipy-positive cells” value worked out at 38.9 ± 13%.

As for `CN(Cc1cnc2nc(N)nc(N)c2n1)c1ccc(C(=O)N[C@@H](CCC(=O)O)C(=O)O)cc1` [Methotrexate hydrate], under setting [2], the “percent Bodipy-positive cells” value was found to be 50.6 ± 19%.

With `CN(Cc1cnc2nc(N)nc(N)c2n1)c1ccc(C(=O)N[C@@H](CCC(=O)O)C(=O)O)cc1`, the “percent Bodipy-positive cells” value under setting [2] came out at 8.57 ± 2.5%.

`CN(Cc1cnc2nc(N)nc(N)c2n1)c1ccc(C(=O)N[C@@H](CCC(=O)O)C(=O)O)cc1` [Methotrexate]: the “percent Bodipy-positive cells” value turned out to be 22.8 ± 2.5%. Moreover, the “percent Bodipy-positive cells” value under setting [1] turned out to be 8.51 ± 3.4%. Besides, the “percent Bodipy-positive cells” value under setting [2] was 16.8% and 7.36%. Where the note is “library stock concentration: 11 mM”, the “percent Bodipy-positive cells” value came to 21.6 ± 6%.

`O=C(COc1ccc(Cl)cc1)N1CCN(Cc2ccc3c(c2)OCO3)CC1` [Fipexide hydrochloride]: the “percent Bodipy-positive cells” value amounted to 25.3 ± 5%. Besides, the “percent Bodipy-positive cells” value under setting [2] turned out to be 43.8 ± 3.6%.

With `CNC(C)CCC=C(C)C` (configuration not stated) [Isometheptene mucate], the “percent Bodipy-positive cells” value turned out to be 9.86 ± 1.8%.

Take `Nc1cc(F)ccc1NC(=O)/C=C/c1cnn(C/C=C/c2ccccc2)c1`: the “percent Bodipy-positive cells” value is, setting by setting: under setting [1], 38.1 ± 2.9%; under setting [2], 55 ± 18%.

`Nc1nc(NC2CC2)c2ncn([C@H]3C=C[C@@H](CO)C3)c2n1`: the “percent Bodipy-positive cells” value under setting [2] turned out to be 28.2 ± 2.2%.

`CCCC[C@@H](C=O)NC(=O)[C@H](CC(C)C)NC(=O)[C@H](CC(C)C)NC(C)=O`: under “library stock concentration: 13 mM”, the “percent Bodipy-positive cells” value was found to be 95.1 ± 0.56%.

Regarding `CCN1CCc2nc(N)oc2CC1` [B-HT 933 dihydrochloride], the “percent Bodipy-positive cells” value under setting [2] turned out to be 29.7 ± 0.28%.

Take `COc1cc(C(C)=O)ccc1O` [Apocynin]: the “percent Bodipy-positive cells” value was 11.4 ± 0.83% under setting [1] and 22.4 ± 3.3% under setting [2].

For `C[N+](C)(C)CCOC(=O)CCC(=O)OCC[N+](C)(C)C` [Succinylcholine chloride], under setting [2], the “percent Bodipy-positive cells” value turned out to be 18.7 ± 5.8%.

Take `C[N+](C)(C)CCOC(=O)CCC(=O)OCC[N+](C)(C)C` [Succinylcholine]: for the setting “library stock concentration: 6.9 mM”, the “percent Bodipy-positive cells” value turned out to be 7.1 ± 2.1%.

`O=C(CCCCCCC(=O)Nc1ccc([C@H]2O[C@@H](CSc3nc(-c4ccccc4)c(-c4ccccc4)o3)C[C@@H](c3ccc(CO)cc3)O2)cc1)NO` [Tubacin]: the “percent Bodipy-positive cells” value turned out to be 10.3 ± 2.5% under setting [1] and 11.9 ± 3.7% under setting [2].

`Cc1ccsc1/C=C/C1=NCCCN1C` [Morantel citrate]: the “percent Bodipy-positive cells” value (library stock concentration: 4.8 mM) turned out to be 9.61 ± 2% and the “percent Bodipy-positive cells” value under setting [2] worked out at 43.6 ± 0.52%.

`Cc1ccsc1/C=C/C1=NCCCN1C` [Morantel tartrate]: the “percent Bodipy-positive cells” value was found to be 28.3 ± 2.5%.

Turning to `CCCCCCCCCCCCCCCCOP(=O)([O-])OCC[N+](C)(C)C` [Miltefosine], the “percent Bodipy-positive cells” value runs as follows: under setting [3], 9.7 ± 5.6%; (library stock concentration: 4.9 mM) 10.1 ± 0.23%; under setting [2], 43.2 ± 6.9%.

For `CCCCC[C@](C)(O)/C=C/[C@H]1[C@H](O)CC(=O)[C@@H]1CCCCCCC(=O)O` [15(S)-15-methyl Prostaglandin E1], the “percent Bodipy-positive cells” value under setting [3] came out at 19.9 ± 0.4%.

On to `CC(Cc1ccc(O)c(O)c1)(NN)C(=O)O` [(S)-(-)-Carbidopa], for which the “percent Bodipy-positive cells” value under setting [2] was 5.63 ± 1.4%.

For the molecule `CC(Cc1ccc(O)c(O)c1)(NN)C(=O)O` (stereo not drawn) [S-(-)-Carbidopa], the “percent Bodipy-positive cells” value under setting [2] was 53.1 ± 5.5%.

Regarding `CCCn1c(=O)[nH]c2nc(-c3ccc(S(=O)(=O)O)cc3)[nH]c2c1=O`, the “percent Bodipy-positive cells” value under setting [2] stood at 3.42 ± 0.81%.

Consider `CCCCCCCCCC(=O)NC(CN1CCOCC1)[C@H](O)c1ccccc1` (some centres not stated), for which the “percent Bodipy-positive cells” value under setting [2] was 38.3 ± 9.6%.

For `CN(C)c1ccc(O)c2c1C[C@H]1C[C@H]3[C@H](N(C)C)C(O)=C(C(N)=O)C(=O)[C@@]3(O)C(O)=C1C2=O` [Minocycline hydrochloride], the “percent Bodipy-positive cells” value was 12.6 ± 0.56%. For the same molecule, the “percent Bodipy-positive cells” value (library stock concentration: 4 mM) worked out at 3 ± 0.68%. In addition, the “percent Bodipy-positive cells” value under setting [2] was determined as 43.1 ± 9%.

For `CN(C)c1ccc(O)c2c1C[C@H]1C[C@H]3[C@H](N(C)C)C(O)=C(C(N)=O)C(=O)[C@@]3(O)C(O)=C1C2=O` [Minocycline HCl], under “library stock concentration: 4.4 mM”, the “percent Bodipy-positive cells” value is 7.96 ± 1.5%.

Regarding `CN(C)c1ccc(O)c2c1C[C@H]1C[C@H]3[C@H](N(C)C)C(O)=C(C(N)=O)C(=O)[C@@]3(O)C(O)=C1C2=O`, under setting [2], the “percent Bodipy-positive cells” value was found to be 26.9 ± 0.33%.
